Data as given in article PMC4974639.

Biological target: hA3G-CD2 E259Q (Homo sapiens) (UniProt Q9HC16)
Assay: EMSA
Conditions: no shifted band at comparable protein range, EMSA: 60 mM HEPES pH 7.5, 100 mM NaCl, on ice 10 min, native PAGE, recombinant protein, protein details: GST tag removed with PreScission (pGEX-6P-1)

Sequence	binding result (label: 5'-FAM (EMSA), single-stranded DNA)	binding result (label: 5'-FAM)
ATTATTATTATTTATCCCTATTTATATTTATTGTTATTGTTATTGTTATA [50 nt ssDNA]	no binding	
AUUAUUAUUAUUUAUCCCUAUUUAUAUUUAUUGUUAUUGUUAUUGUUAUA [50 nt RNA]		no binding

For at least one entry, the source does not settle the construct or the ends of the probe. Negatives hold for the conditions tested. At least one verdict rests on a figure or table, not on a statement of the authors.
